Data published in PMC9905489.
Results are given in words; binding and its absence hold for the method and conditions named. Binding seen in cells or lysates may run through a third protein. Some binding calls cover weakened binding; strength is not graded here. For some assays here: Where a sequence is shown, tags or fusion partners need not be part of it. One block for each binder: values may come before it.

Legend:
[1] = biological target: T1, AURKA, endogenous (human (endogenous; all cell lines of the paper are human, the line of Fig. 4B is not stated)) (UniProt O14965); test: co-IP; endogenous HMMR and AURKA; immunoprecipitation with anti-HMMR or anti-AURKA antibodies, western blot; cell line not stated
T1 sequence: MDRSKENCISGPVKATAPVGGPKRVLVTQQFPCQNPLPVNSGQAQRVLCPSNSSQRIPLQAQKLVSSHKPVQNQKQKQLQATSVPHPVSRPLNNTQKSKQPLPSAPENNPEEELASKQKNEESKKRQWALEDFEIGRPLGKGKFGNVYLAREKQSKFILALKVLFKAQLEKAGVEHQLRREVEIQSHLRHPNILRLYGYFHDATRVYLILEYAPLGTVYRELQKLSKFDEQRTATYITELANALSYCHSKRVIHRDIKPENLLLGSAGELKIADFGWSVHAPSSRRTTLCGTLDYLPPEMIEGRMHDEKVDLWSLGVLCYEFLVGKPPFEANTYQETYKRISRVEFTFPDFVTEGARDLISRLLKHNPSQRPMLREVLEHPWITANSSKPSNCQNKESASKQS

His-labelled AURKA = biological target: T2, His-labelled AURKA (UniProt O14965); test: co-IP; Flag-HMMR or its deletion mutants with His-AURKA, co-transfected (HEK-293T stated for the deletion mutants); whole-cell lysates immunoprecipitated with anti-His (for the whole protein also anti-Flag) and blotted with anti-Flag
T2 sequence: T1 sequence

binding [1]: binds
B1: Hyaluronan-mediated motility receptor (HMMR), endogenous (protein, UniProt O75330 1-724)
chain: MSFPKAPLKRFNDPSGCAPSPGAYDVKTLEVLKGPVSFQKSQRFKQQKESKQNLNVDKDTTLPASARKVKSSESKESQKNDKDLKILEKEIRVLLQERGAQDRRIQDLETELEKMEARLNAALREKTSLSANNATLEKQLIELTRTNELLKSKFSENGNQKNLRILSLELMKLRNKRETKMRGMMAKQEGMEMKLQVTQRSLEESQGKIAQLEGKLVSIEKEKIDEKSETEKLLEYIEEISCASDQVEKYKLDIAQLEENLKEKNDEILSLKQSLEENIVILSKQVEDLNVKCQLLEKEKEDHVNRNREHNENLNAEMQNLKQKFILEQQEREKLQQKELQIDSLLQQEKELSSSLHQKLCSFQEEMVKEKNLFEEELKQTLDELDKLQQKEEQAERLVKQLEEEAKSRAEELKLLEEKLKGKEAELEKSSAAHTQATLLLQEKYDSMVQSLEDVTAQFESYKALTASEIEDLKLENSSLQEKAAKAGKNAEDVQHQILATESSNQEYVRMLLDLQTKSALKETEIKEITVSFLQKITDLQNQLKQQEEDFRKQLEDEEGRKAEKENTTAELTEEINKWRLLYEELYNKTKPFQLQLDAFEVEKQALLNEHGAAQEQLNKIRDSYAKLLGHQNLKQKIKHVVKLKDENSQLKSEVSKLRCQLAKKKQSETKLQEELNKVLGIKHFDPSKAFHHESKENFALKTPLKEGNTNCYRAPMECQESWK

binding (His-labelled AURKA): binds
B2: Flag-labelled HMMR (protein, UniProt O75330 1-724)
chain: B1 chain
